PfKRS1: 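Enzyme assay of the cytosolic lysyl-tRNA synthetase in 384-well plates, read by luminescence. Target: Lysine-tRNA ligase, Plasmodium falciparum 3D7 (UniProt Q8IDJ8). Concentration: 30 µM. Direction is inferred from only a few compounds that gave an IC50; most scored high, so higher reads as stronger inhibition. Of about 69,000 compounds tested this way, about 49 (0.071%) reached 50% or more in at least one test.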
TcHisRS: 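Histidine-tRNA ligase, Trypanosoma cruzi CL Brener (UniProt Q4DA54). Enzyme assay of histidyl-tRNA synthetase; the read-out is not stated. Tested at 30 µM. The record gives no direction; compounds that gave an IC50 in retests scored well above the rest, so higher reads as stronger inhibition. Size under these conditions: about 69,000 compounds, about 31 of them at 50% or above in at least one test.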
Leishmania in macrophages: 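Cell assay of Leishmania donovani living inside macrophages; the read-out is not stated. Tested at 30 µM. Higher reads as stronger inhibition (inferred: compounds with an IC50 in retests scored well above the rest). About 69,000 compounds were tested under these conditions; 1.5% (about 1,000) showed 50% or more at least once.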
Pks13 thioesterase: 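Enzyme assay of the thioesterase domain of polyketide synthase 13; the read-out is not stated. Target: Polyketide synthase Pks13, Mycobacterium tuberculosis (UniProt I6X8D2). Compounds at 30 µM. Higher reads as stronger inhibition (inferred from which compounds were picked for retests). About 67,000 compounds were tested under these conditions; 0.46% (about 300) showed 50% or more at least once.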

The chains behind the UniProt entries cited, without tags or fusion partners. Residues count along the entry.
UniProt Q8IDJ8, 1-583: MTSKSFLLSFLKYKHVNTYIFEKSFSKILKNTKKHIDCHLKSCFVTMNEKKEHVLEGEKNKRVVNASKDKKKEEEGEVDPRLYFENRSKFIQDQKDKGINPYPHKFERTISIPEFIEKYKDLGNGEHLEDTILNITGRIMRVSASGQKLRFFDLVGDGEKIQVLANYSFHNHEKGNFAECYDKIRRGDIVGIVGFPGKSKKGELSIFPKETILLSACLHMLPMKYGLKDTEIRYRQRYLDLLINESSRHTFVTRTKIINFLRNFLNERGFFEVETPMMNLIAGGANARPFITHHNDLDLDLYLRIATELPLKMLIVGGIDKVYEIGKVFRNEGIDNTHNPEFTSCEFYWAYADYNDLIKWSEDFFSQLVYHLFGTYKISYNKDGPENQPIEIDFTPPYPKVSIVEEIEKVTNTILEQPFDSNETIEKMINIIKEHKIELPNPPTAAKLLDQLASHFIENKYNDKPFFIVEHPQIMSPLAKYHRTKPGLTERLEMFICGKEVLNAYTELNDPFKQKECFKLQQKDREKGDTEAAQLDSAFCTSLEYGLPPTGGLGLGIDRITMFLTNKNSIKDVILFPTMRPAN
UniProt Q4DA54, 1-478: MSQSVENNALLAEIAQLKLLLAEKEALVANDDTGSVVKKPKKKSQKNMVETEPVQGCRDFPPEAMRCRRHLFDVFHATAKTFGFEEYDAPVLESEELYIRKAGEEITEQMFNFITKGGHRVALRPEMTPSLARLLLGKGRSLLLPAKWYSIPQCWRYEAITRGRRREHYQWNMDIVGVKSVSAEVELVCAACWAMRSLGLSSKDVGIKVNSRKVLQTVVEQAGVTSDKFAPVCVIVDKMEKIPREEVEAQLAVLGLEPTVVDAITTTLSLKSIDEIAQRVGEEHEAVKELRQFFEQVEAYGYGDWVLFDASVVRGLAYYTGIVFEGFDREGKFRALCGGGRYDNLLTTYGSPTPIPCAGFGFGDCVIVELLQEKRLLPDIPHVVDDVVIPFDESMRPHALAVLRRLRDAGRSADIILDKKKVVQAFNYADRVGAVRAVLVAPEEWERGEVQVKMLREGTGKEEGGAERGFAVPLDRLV
UniProt I6X8D2, whole entry: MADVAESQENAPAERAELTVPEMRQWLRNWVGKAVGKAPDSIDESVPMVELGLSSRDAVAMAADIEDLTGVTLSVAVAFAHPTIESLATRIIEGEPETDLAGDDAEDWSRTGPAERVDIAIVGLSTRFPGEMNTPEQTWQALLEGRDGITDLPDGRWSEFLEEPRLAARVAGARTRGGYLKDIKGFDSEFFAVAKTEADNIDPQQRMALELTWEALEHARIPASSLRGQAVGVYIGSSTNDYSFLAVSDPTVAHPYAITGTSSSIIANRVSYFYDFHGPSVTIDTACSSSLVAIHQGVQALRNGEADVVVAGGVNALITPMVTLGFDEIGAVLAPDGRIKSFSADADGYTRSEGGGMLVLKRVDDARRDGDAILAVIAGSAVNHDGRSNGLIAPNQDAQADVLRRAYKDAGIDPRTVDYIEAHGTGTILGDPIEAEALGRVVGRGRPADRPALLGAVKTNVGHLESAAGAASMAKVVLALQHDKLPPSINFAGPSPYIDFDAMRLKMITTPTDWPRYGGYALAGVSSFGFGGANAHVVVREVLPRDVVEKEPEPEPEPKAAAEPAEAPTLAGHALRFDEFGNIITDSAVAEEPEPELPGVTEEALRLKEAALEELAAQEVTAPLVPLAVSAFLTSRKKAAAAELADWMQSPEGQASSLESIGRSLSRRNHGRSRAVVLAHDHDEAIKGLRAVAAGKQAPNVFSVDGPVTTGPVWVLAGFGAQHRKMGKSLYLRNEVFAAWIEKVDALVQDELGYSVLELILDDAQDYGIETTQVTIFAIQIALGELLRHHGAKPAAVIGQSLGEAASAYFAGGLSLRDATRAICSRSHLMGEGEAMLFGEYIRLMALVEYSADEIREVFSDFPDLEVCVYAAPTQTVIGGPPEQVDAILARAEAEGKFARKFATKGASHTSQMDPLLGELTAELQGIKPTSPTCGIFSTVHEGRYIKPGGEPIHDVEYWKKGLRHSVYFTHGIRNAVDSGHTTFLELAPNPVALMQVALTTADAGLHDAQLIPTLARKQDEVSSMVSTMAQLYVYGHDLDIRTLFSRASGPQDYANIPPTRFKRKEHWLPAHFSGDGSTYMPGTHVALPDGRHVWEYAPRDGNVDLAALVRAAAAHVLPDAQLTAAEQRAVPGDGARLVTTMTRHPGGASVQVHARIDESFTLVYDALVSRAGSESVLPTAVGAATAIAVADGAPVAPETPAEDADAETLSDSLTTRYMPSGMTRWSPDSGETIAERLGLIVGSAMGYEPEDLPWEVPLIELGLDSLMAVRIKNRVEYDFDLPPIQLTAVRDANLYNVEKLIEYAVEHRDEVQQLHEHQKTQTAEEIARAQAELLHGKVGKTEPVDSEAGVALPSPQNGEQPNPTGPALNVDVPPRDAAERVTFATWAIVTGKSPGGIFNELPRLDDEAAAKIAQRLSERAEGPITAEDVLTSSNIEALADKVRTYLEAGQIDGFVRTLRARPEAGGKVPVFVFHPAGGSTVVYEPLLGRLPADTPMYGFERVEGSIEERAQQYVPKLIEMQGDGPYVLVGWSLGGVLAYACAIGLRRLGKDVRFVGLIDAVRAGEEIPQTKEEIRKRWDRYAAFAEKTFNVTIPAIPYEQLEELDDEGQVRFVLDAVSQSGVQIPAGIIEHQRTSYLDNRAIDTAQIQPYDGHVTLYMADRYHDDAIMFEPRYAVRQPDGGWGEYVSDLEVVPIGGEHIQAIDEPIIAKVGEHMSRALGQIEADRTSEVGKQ

The filed quantity is “Percent Effect” (%). The controls that fix the scale are not given in the record; negative values are as filed. The compounds are a random part of those screened. Two or more numbers in one place are separate tests of the same structure; such repeats can differ widely. A dash means the value is not listed here; it may have been measured.

compound	PfKRS1	TcHisRS	Leishmania in macrophages	Pks13 thioesterase
CCc1nc(C2CCCN2C(=O)c2ccc3c(c2)COC3)no1 (stereo unspecified)	0.6372	8.475	11.05	-1.703
CN1CCC2(CCN(c3ncc(F)cn3)CC2)C1=O	5.365	6.135	-	-0.444
CCOC(=O)N1CC(=O)N(Cc2ccc(OC)cc2)CC(O)C1 (stereo unspecified)	6.086	7.865	10.06	10.04
Cc1ccc(CN2CCN(c3ncnc4[nH]cnc34)CC2CCO)cc1 (stereo unspecified)	2.978	10	5.334	8.242
CC(=O)c1ccc(Nc2nc(N)nc3c2nc(C)n3C)cc1	6.857	-9.649	9.465	2.222
COCCN(c1ccncc1)S(=O)(=O)c1cc(C)c(F)cc1F	-5.751	-3.03	-8.897	8.084
O=C(c1ccc(F)c(F)c1)N1CCCC(Nc2ccc(F)cc2)C1 (stereo unspecified)	-1.92	1.667	14.79	-6.921
Cc1nc(C(C)NC(=O)NCc2nccn2CC(C)C)cs1 (stereo unspecified)	0.1477	5.732	-4.726	0.7609
N#Cc1ccc(C(=O)N2CC[C@H]3[C@H]2CCN3CC2CC2)cc1	6.99	1.942	-	-18.51
CCOc1cncc(N2CCN(c3ccccc3O)CC2)n1	0.6239	8.333	-9.375	-11.72
Cc1ccc(N2CC[C@@H]3CN(Cc4cccc(C)n4)C[C@@H]3C2)nn1	0.365	2.299	-	-28.64
COc1ccc(C(C#N)NC(=O)CC2=CCCCC2)c(OC)c1 (stereo unspecified)	2.282	1.587	-69.42	-7.545
CNc1nc(C)c(C(=O)N2CCCCC2CCc2ccc(O)cc2)s1 (stereo unspecified)	-1.085	2.116	12.95	-31.63
Cn1cnc2c(-c3ccccc3)nc(C3CCNCC3)cc21	4.891	2.062	-	-32.66
Cc1c(CN2CCCCC2)c(O)n(CCO)c(=O)c1C#N	4.337	6.78	17.72	8.74
[H][C@@]12C[C@@H](C(=O)NC(C)C)C[C@@]1([H])N(Cc1ccncc1)CCO2	-	-	11.77	-
Cc1nnc(CN(Cc2cccc3c2OCO3)CC2CCCO2)n1C (stereo unspecified)	2.795	2.762	-17.5	-43.69
Cc1noc(C)c1CNC(=O)N1CCCC(C)CC1 (stereo unspecified)	6.525	3.061	29.05	-9.572
O=c1[nH]nc(CNc2ncc(Cl)cn2)[nH]1	6.168	8.333	-9.138	-18.54
CC(C)OCCN1CCN(C(=O)c2cccc(CC#N)c2)CC1	2.794	3.053	-28.95	-3.827
NCc1ccc(Oc2cccc(Cl)c2Cl)cc1	2.186	10.78	17.28	-4.29
COCCN1CCC2(CC1)CC(c1ccccc1)C(=O)N2C (stereo unspecified)	-1.69	10.34	16.29	-2.733
COCCCN(Cc1ccccn1)S(=O)(=O)N(C)C	1.398	6.736	8.306	-16.34
Cc1cc(CNC(=O)NCCC(=O)N2CCCc3ccccc32)no1	-0.1342	2.762	18.24	-6.15
c1csc(CN2C[C@@H]3COC[C@]3(COCc3ccncc3)C2)c1	-1.449	-1.84	-	11.74
Cl.Cl.NCC(=O)N1CCCC(c2ccnc(Nc3cnccn3)n2)C1 (stereo unspecified)	-	-	7.013 & 27.62	-
Cc1nc(S(=O)(=O)N2CCSC3(CCCCC3)C2)cn1C	1.389	10.5	3.827	-30.17
CN(C)CCN1CCCC12CCCN(Cc1ccco1)C2.O=C(O)C(F)(F)F.O=C(O)C(F)(F)F.O=C(O)C(F)(F)F (stereo unspecified)	-	-	23.56 & 28.49	-
CC(C)N(C)CCC(=O)N1CCCC(c2ccc(C(=O)O)cc2)C1 (stereo unspecified)	12.92	3.139	8.29	-12.8
CCc1nc2ccccc2n1C(CC)C(=O)N(C)Cc1nc(C)c[nH]1 (stereo unspecified)	-1.884	7.212	-0.394	-14.76
Cc1ccc(S(=O)(=O)N2CCC3(CC(C(=O)NCC4CC4)=NO3)C2)cc1 (stereo unspecified)	-1.425	-0.5464	-20.6	-5.708
c1cncc(CN2Cc3nccn3CC(Cn3cncn3)C2)c1 (stereo unspecified)	-0.3327	12.06	-	25.87
Cc1cc(CC(=O)N2CCN(CC3CC3)[C@@H]3CS(=O)(=O)C[C@@H]32)ccc1F	1.864	1.626	-	-5.847
Cc1cc(C)n(C2CCCN(C(=O)c3ccc(N(C)C)nc3)C2)n1 (stereo unspecified)	0.6956	5.202	15.23	-11.91
COc1cccc(N2Cc3nc(=O)n(C(C)C)n3C2=O)c1	5.698	1.754	-16.27	-7.809
CC(C)c1cc(C(=O)N2CCCC(n3cncn3)C2)n[nH]1 (stereo unspecified)	0.06699	3.704	5.34	-22.24
NCCn1cc(C(=O)NCc2ccccc2Cn2cccn2)nn1	8.519	-3.03	27.13	-35.04
CCN1C(=O)[C@H]2CN(CC(C)C)C[C@H]2C12CCN(S(C)(=O)=O)CC2	1.098	4.301	-	-32.91
COc1c(Br)cccc1CCNC(=O)c1csnn1	6.635	3.922	24.34	-26.26
CCCN1CCC2(C1)c1ccccc1S(=O)(=O)N2C (stereo unspecified)	0.08	5.747	-	-6.459
O=C(O)C(F)(F)F.c1cnc(N2CCOCC3(CN(Cc4ccsc4)CCO3)C2)nc1 (stereo unspecified)	-	-	6.709	-
O=C(c1ccco1)N1CC[C@@H](N2CCOCC2)[C@@H]1Cc1ccncc1	-0.1426	5.102	-	-14.88
Cc1nc(N2CCCC(N3CCCC3)C2)c2cnn(C)c2n1 (stereo unspecified)	2.15	15	15.02	-10.12

Repeated from the top, 5 entries:

{"compound": "CCc1nc(C2CCCN2C(=O)c2ccc3c(c2)COC3)no1", "stereo": "stereo unspecified", "PfKRS1": 0.6372, "TcHisRS": 8.475, "Leishmania in macrophages": 11.05, "Pks13 thioesterase": -1.703}
{"compound": "CN1CCC2(CCN(c3ncc(F)cn3)CC2)C1=O", "PfKRS1": 5.365, "TcHisRS": 6.135, "Pks13 thioesterase": -0.444}
{"compound": "CCOC(=O)N1CC(=O)N(Cc2ccc(OC)cc2)CC(O)C1", "stereo": "stereo unspecified", "PfKRS1": 6.086, "TcHisRS": 7.865, "Leishmania in macrophages": 10.06, "Pks13 thioesterase": 10.04}
{"compound": "Cc1ccc(CN2CCN(c3ncnc4[nH]cnc34)CC2CCO)cc1", "stereo": "stereo unspecified", "PfKRS1": 2.978, "TcHisRS": 10, "Leishmania in macrophages": 5.334, "Pks13 thioesterase": 8.242}
{"compound": "CC(=O)c1ccc(Nc2nc(N)nc3c2nc(C)n3C)cc1", "PfKRS1": 6.857, "TcHisRS": -9.649, "Leishmania in macrophages": 9.465, "Pks13 thioesterase": 2.222}

The values are deposited in ChEMBL (CHEMBL3988442, “University of Dundee, Small-Polar-MMV Screening Library” (2021)).